## Primary screen of a compound library

Chains of the proteins cited; added tags and fusions are not shown.
UniProt E9BF75, entry or part of it: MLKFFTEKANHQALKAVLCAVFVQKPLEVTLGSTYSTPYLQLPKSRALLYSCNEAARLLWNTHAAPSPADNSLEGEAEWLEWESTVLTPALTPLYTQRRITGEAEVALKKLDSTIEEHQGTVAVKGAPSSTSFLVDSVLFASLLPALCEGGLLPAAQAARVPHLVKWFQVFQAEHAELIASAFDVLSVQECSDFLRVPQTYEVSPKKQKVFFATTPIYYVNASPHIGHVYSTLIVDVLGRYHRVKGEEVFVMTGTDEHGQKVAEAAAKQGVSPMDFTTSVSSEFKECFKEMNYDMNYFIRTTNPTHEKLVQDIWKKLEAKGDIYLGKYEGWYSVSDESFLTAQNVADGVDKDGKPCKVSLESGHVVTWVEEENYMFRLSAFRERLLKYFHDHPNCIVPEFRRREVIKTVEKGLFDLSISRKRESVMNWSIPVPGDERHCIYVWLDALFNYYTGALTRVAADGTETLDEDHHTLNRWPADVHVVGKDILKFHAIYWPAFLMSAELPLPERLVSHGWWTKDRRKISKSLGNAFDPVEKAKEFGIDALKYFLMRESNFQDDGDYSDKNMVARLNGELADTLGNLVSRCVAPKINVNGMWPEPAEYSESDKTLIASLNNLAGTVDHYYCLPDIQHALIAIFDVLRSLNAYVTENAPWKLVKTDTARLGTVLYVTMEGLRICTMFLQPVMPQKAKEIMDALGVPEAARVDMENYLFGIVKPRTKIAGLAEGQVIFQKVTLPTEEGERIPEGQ

The values are deposited in ChEMBL (CHEMBL3988442, “University of Dundee, Small-Polar-MMV Screening Library” (2021)).

Mtb heat-shock: 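Assay on Mycobacterium tuberculosis, filed only as a heat shock assay from Cornell; the read-out is not stated. The concentration is filed as 10 mM, unlikely as a test dose, so the dose is not known. Higher reads as stronger inhibition (inferred: compounds with an IC50 in retests scored well above the rest). About 69,000 compounds were tested under these conditions; 1.4% (about 930) showed 50% or more at least once.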
LdMetRS: 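Methionyl-tRNA synthetase (putative), Leishmania donovani (UniProt E9BF75). Primary screen of methionyl-tRNA synthetase; the read-out is not stated. The test concentration is not given. The values are filed as inhibition. About 68,000 compounds were tested under these conditions; 0.035% (about 24) showed 50% or more at least once.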
Mtb growth Cornell: 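Whole-cell assay for inhibitors of Mycobacterium tuberculosis growth, labelled Cornell in the record; the read-out is not stated. The concentration is filed as 10 mM, unlikely as a test dose, so the dose is not known. The record gives no direction; compounds strong in two other growth screens of this library score well above the rest, so higher reads as stronger inhibition. About 53,000 compounds were tested under these conditions; 1.7% (about 900) showed 50% or more at least once.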

Results are percentages, as filed. The record does not define 0% and 100%; most values in the screen are far below 50% and negative numbers occur (in some assays of this library far below -100). Compounds were drawn at random from those tested, without regard to their results. A dash means the value is not listed here; it may have been measured.

| Compound | Mtb heat-shock | LdMetRS | Mtb growth Cornell |
|---|---|---|---|
| `COc1ccc(C(O)CNC(=O)Nc2cc(C)nn2C)cc1` (configuration not stated) | -0.2166 | 2.041 | - |
| `Cn1nc(C2CCCN(Cc3cc(F)ccc3F)C2)c2nccnc21` (configuration not stated) | - | 15.1 | - |
| `O=C(C1CC(=O)N(c2ccccc2Br)C1)N1CCC2(CC1)OCCO2` (configuration not stated) | 2.901 | 13.66 | 11.22 |
| `CC(C)N(C)CC(=O)N1CCCC(n2ccnc2)C1` (configuration not stated) | 26.17 | 12.78 | - |
| `O=C(Nc1nc2c(s1)CCC2)c1cccnc1N1CCOCC1` | -10.55 | 9.155 | 2.372 |
| `Cc1cc(C)c(CNC(=O)N2CCOC(c3ccccc3)C2)c(=O)[nH]1` (configuration not stated) | -4.668 | 29.63 | -30.16 |
| `Cc1noc(C)c1C(=O)N1CCCC(c2c(C)c(=O)nc3n2CCC3)C1` (configuration not stated) | -5.371 | 11.98 | -8.317 |
| `CCN(CC)C1CCN(C(=O)NCc2nncn2CC)CC1` | -1.422 | 10.49 | - |
| `COc1ccc(CC2CN(Cc3cncn3C)CCO2)cc1` (configuration not stated) | 6.51 | 14.36 | 25.83 |
| `CC1c2ncc(COCC3CC3)n2CCN1C(=O)c1ccnn1C` (configuration not stated) | -41.91 | 11.76 | 18.95 |
| `COCC1COCCC12CCN(Cc1cccs1)CC2.O=C(O)C(F)(F)F` (configuration not stated) | 3.598 | - | 8.742 |
| `[H][C@@]12CCN(S(C)(=O)=O)[C@]1([H])CC[C@@H](c1nnc(C)o1)O2` | -1.515 | - | -25.09 |
| `O=C(CCc1ccsc1)N1CCCC(N2CCNC2=O)C1` (configuration not stated) | 18.9 | 16.86 | 0 |
| `Cc1ncc2c(n1)CN(CC(=O)N1CCc3sccc3C1)CC2` | -11.3 | 15.05 | 8.451 |
| `Cc1cccnc1CCNC(=O)CC1C(=O)NCCN1CCC(C)C` (configuration not stated) | -17.75 | -0.2398 | -8.27 |
| `Cc1cccc(Cl)c1NC(=O)Cn1cc(C(=O)O)ccc1=O` | 15.48 | -1.299 | -12.54 |
| `COc1ccc(-c2nnc([C@H]3CCN(CC4CC4)C3)o2)cc1` | -25.22 | 1.695 | -11.24 |
| `CCOC(=O)N1CCN(c2nc(N3CCCC3)c3ccccc3n2)CC1` | -1.863 | 1.818 | 27.51 |
| `COc1ccc(C2SCC(=O)Nc3ccsc32)cc1` (configuration not stated) | -12.78 | 5.394 | - |
| `CCCn1cc(-c2cc(C(=O)N(C)C)c3ccc(C)cc3n2)cn1` | 6.467 | 6.349 | -1.4 |
| `Cc1nc(C)n(C2CCCN(C(=O)CCc3ccncc3)C2)n1` (configuration not stated) | 1.673 | 14.29 | 15.01 |
| `N[C@H]1CN(C(=O)c2cnc3cc(Cl)ccc3c2O)C[C@@H]1C1CC1` | -3.216 | 13.31 | 39.62 |
| `Cc1cccc(CN2CC3(CCN(C(=O)N(C)C)CC3)OCC2=O)n1` | - | 15.74 | - |
| `O=C(CC1CCCCC1)N1CCOCC1CO` (configuration not stated) | 17.27 | 18.87 | 5.822 |
| `CC(C)=CCN1C(=O)[C@H]2CC[C@@H]1CN(c1ncccc1F)C2` | - | 13.51 | - |
| `N#Cc1cccc(OCCCN2CCN(C(=O)c3ccoc3)CC2)c1` | 6.507 | 12.43 | - |
| `O=C(Nc1ccc(F)cc1F)Nc1c[nH]c(=O)[nH]c1=O` | 25.55 | 14.71 | -0.3753 |
| `Cc1nc2cc(O)nn2c(C)c1CCC(=O)N(C)CCC(C)C` | -4.349 | 20.86 | 5.535 |
| `O=C(O)C(F)(F)F.O=C(O)C(F)(F)F.[H][C@]12COC[C@H](N(C)C)[C@@]1([H])CN(Cc1ccc3c(c1)OCO3)C2` | -29.53 | - | 25.9 |
| `CC(C)(C)c1ccc(S(=O)(=O)CCNC(=O)c2cnccn2)cc1` | -28.68 | 3.663 | - |
| `[H][C@]12CN(c3nc(C)cc(C)n3)CC[C@@]1(O)CCN(S(=O)(=O)N(C)C)C2` | -1.729 | - | - |
| `Cc1ccc(S(N)(=O)=O)cc1C(=O)NC1CCN(C2CC2)CC1` | -34.31 | 9.034 | -2.709 |
| `CCn1nc(C)c(CNC(=O)NCC(C)(O)c2ccc(C)o2)c1C` (configuration not stated) | 3.202 | 8.424 | 21.86 |
| `COc1nn(C)c2c1CCCN(S(=O)(=O)c1cccc(C)c1)C2` | -13.4 | 7.904 | 18.51 |
| `CCCn1cnnc1CNC(=O)C1COc2ccc(OC)cc2C1` (configuration not stated) | -18.38 | 9.507 | -7.352 |
| `CCC[C@@H]1CN(Cc2cc3c(cc2OC)OCO3)C[C@H]1C(=O)O` | 2.153 | 16.84 | - |
| `[H][C@]12CC[C@]([H])(CN(Cc3nnc(-c4ccccc4)o3)C1)N(CC1CCC1)C2` | 64.4 | - | 34.96 |
| `CC(C)n1ccnc1CN1CCOC(CCc2ccccc2)C1` (configuration not stated) | -0.01061 | 2.405 | 10.17 |
| `COCC(C)NC(=O)c1cn(C(C)(C)C)c2ncccc12` (configuration not stated) | -8.611 | 6.643 | - |
| `O=C(c1ccnnc1)N1CC[C@H](OCC2CC2)[C@@H]1Cc1ccncc1` | 12.38 | 7.492 | 4.699 |
| `O=C(O)C(F)(F)F.c1cnc(N2CCCC3(COCCN(CC4CC4)C3)C2)nc1` (configuration not stated) | -24.97 | - | 0.4955 |
| `CCN(CC)C(CNC(=O)c1ccc(-n2cncn2)cc1)c1ccsc1` (configuration not stated) | -31.93 | 11.02 | 33.95 |
| `CN(CCCOc1ccc(F)cc1)S(=O)(=O)c1cnn(C)c1` | -13.91 | 17.12 | -5.978 |
| `O=C(Nc1cccnc1-n1cc(Cl)cn1)C1CCCC1` | 16.14 | 12.42 | 14.71 |
| `Cc1ccccc1OCCCC(=O)N1CCCC(n2cncn2)C1` (configuration not stated) | -4.129 | 15.71 | - |
| `CC(NC(=O)CCNC(=O)c1ccoc1)c1ccccc1` (configuration not stated) | -17.58 | 12.03 | - |
| `Cc1cc(CN(C)Cc2csc(-c3cccs3)n2)n[nH]1` | -21.38 | 4.878 | - |
| `CCCC(=O)N1CCC2(CC1)COC2` | 1.533 | 6.667 | - |

For reference, 3 entries once more:

Compound	Mtb heat-shock	LdMetRS	Mtb growth Cornell
O=C(CC1CCCCC1)N1CCOCC1CO (configuration not stated)	17.27	18.87	5.822
CCC[C@@H]1CN(Cc2cc3c(cc2OC)OCO3)C[C@H]1C(=O)O	2.153	16.84	-
N#Cc1cccc(OCCCN2CCN(C(=O)c3ccoc3)CC2)c1	6.507	12.43	-